The list shows a part of the results. Repeats are few or missing, and single values can be far off.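 Imaging used 1,536-well plates; nuclei positive for cleaved PARP by antibody were divided by total DNA-stained nuclei to yield the apoptosis fraction. Doses for screening kept most cells viable, and cell lines differ markedly in resting and induced cleaved-PARP levels.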
What was measured:
Assay in all cases: cleaved PARP positive nuclei fraction relative to DMSO control; melanoma cells; higher = more apoptosis
Settings in all cases: library dose: low library concentration; 72 h
501Mel = tested on: 501Mel
A101D = tested on: A101D
A2058 = tested on: A2058
A375 = tested on: A375
C32 = tested on: C32
CBRC008 = tested on: CBRC008 (line from a melanoma biopsy)
CBRC014 = tested on: CBRC014 (line from a melanoma biopsy)
CBRC016 = tested on: CBRC016 (line from a melanoma biopsy)
CBRC017 = tested on: CBRC017 (line from a melanoma biopsy)
CBRC034 = tested on: CBRC034 (line from a melanoma biopsy)
COLO792 = tested on: COLO792
COLO800 = tested on: COLO800
COLO829 = tested on: COLO829
G361 = tested on: G361
IPC-298 = tested on: IPC-298
IST-MEL1 = tested on: IST-MEL1
LB2518-MEL = tested on: LB2518-MEL
LOXIMVI = tested on: LOXIMVI
MEL-HO = tested on: MEL-HO

SMILES | cleaved PARP positive nuclei fraction (501Mel) [%] | cleaved PARP positive nuclei fraction (A101D) [%] | cleaved PARP positive nuclei fraction (A2058) [%] | cleaved PARP positive nuclei fraction (A375) [%] | cleaved PARP positive nuclei fraction (C32) [%] | cleaved PARP positive nuclei fraction (CBRC008) [%] | cleaved PARP positive nuclei fraction (CBRC014) [%] | cleaved PARP positive nuclei fraction (CBRC016) [%] | cleaved PARP positive nuclei fraction (CBRC017) [%] | cleaved PARP positive nuclei fraction (CBRC034) [%] | cleaved PARP positive nuclei fraction (COLO792) [%] | cleaved PARP positive nuclei fraction (COLO800) [%] | cleaved PARP positive nuclei fraction (COLO829) [%] | cleaved PARP positive nuclei fraction (G361) [%] | cleaved PARP positive nuclei fraction (IPC-298) [%] | cleaved PARP positive nuclei fraction (IST-MEL1) [%] | cleaved PARP positive nuclei fraction (LB2518-MEL) [%] | cleaved PARP positive nuclei fraction (LOXIMVI) [%] | cleaved PARP positive nuclei fraction (MEL-HO) [%]
Cn1c(=O)n(-c2ccc(C(C)(C)C#N)cc2)c2c3cc(-c4cnc5ccccc5c4)ccc3ncc21 + COc1ccc(Cl)c(Nc2nc3ccccc3nc2NS(=O)(=O)c2cccc(NC(=O)C(C)(C)N)c2)c1 [XL147] (first compound 0.004 µM, partner dose 0.8 µM) | 120 | 53.5 | 90.5 | 138 | 84.9 | 192 | 202 | 120 | 117 | 508 | 135 | 49 | 220 | 92.7 | 140 | 223 | 106 | 182 | 222
CC(C)C[C@H](NC(=O)[C@H](Cc1ccccc1)NC(=O)c1cnccn1)B(O)O [Bortezomib] + Nc1ccn([C@@H]2O[C@H](CO)[C@@H](O)C2(F)F)c(=O)n1 [gemcitabine] (first compound 0.001 µM, partner dose 0.0004 µM) | 399 | 484 | 96.4 | 93.3 | 81.8 | 894 | 295 | 770 | 267 | 999 | 79.1 | 112 | 129 | 3740 | 120 | 163 | 551 | 54.6 | 79.1
CCCS(=O)(=O)Nc1ccc(F)c(C(=O)c2c[nH]c3ncc(Cl)cc23)c1F + Nc1ncn([C@H]2C[C@H](O)[C@@H](CO)O2)c(=O)n1 [decitabine] (first compound 0.08 µM, partner dose 0.1 µM) | 145 | 97.5 | 120 | 224 | 76.1 | 153 | 103 | 103 | 128 | 104 | 54.2 | 113 | 59.3 | 206 | 137 | 70.7 | 321 | 150 | 106
CN1CCN(c2ccc3nc(-c4c(N)c5c(F)cccc5[nH]c4=O)[nH]c3c2)CC1 [Dovitinib] + CO[C@H]1C[C@@H]2CC[C@@H](C)[C@@](O)(O2)C(=O)C(=O)N2CCCC[C@H]2C(=O)O[C@H]([C@H](C)C[C@@H]2CC[C@@H](OCCO)[C@H](OC)C2)CC(=O)[C@H](C)/C=C(\C)[C@@H](O)[C@@H](OC)C(=O)[C@H](C)C[C@H](C)/C=C/C=C/C=C/1C [everolimus] (first compound 0.1 µM, partner dose 0.02 µM) | 894 | 109 | 153 | 682 | 264 | 224 | 91.7 | 71.9 | 142 | 68.4 | 257 | 39.4 | 160 | 21.9 | 123 | 161 | 369 | 87.2 | 124
CS(=O)(=O)CCNCc1ccc(-c2ccc3ncnc(Nc4ccc(OCc5cccc(F)c5)c(Cl)c4)c3c2)o1 [lapatinib] + Cn1c(Nc2ccc(C(F)(F)F)cc2)nc2cc(Oc3ccnc(-c4ncc(C(F)(F)F)[nH]4)c3)ccc21 [CHIR265] (first compound 0.8 µM, partner dose 0.08 µM) | 286 | 157 | 33.4 | 794 | 91.9 | 68 | 111 | 140 | 130 | 133 | 330 | 53.7 | 89 | 186 | 91.8 | 73.2 | 162 | 160 | 113
Cc1cc(Nc2cc(N3CCN(C)CC3)nc(/C=C/c3ccccc3)n2)n[nH]1 + CNC(=O)c1cc(Oc2ccc(NC(=O)Nc3ccc(Cl)c(C(F)(F)F)c3)cc2)ccn1 [sorafenib] (first compound 0.04 µM, partner dose 0.4 µM) | 51.2 | 55.6 | 68.4 | 234 | 21000 | 46.4 | 103 | 50 | 102 | 78.9 | 83.6 | 92.2 | 136 | 146 | 286 | 124 | 155 | 108 | 118
CN1CCN(c2ccc3nc(-c4c(N)c5c(F)cccc5[nH]c4=O)[nH]c3c2)CC1 [Dovitinib] + C=CCNC1=C2C[C@@H](C)C[C@H](OC)[C@H](O)[C@@H](C)/C=C(\C)[C@H](OC(N)=O)[C@@H](OC)/C=C\C=C(/C)C(=O)NC(=CC1=O)C2=O [Tanespimycin] (first compound 0.1 µM, partner dose 0.002 µM) | 640 | 176 | 51 | 189 | 208 | 171 | 181 | 43.2 | 96.4 | 31.5 | 80.7 | 86.9 | 95.2 | 110 | 179 | 65.9 | 130 | 28.8 | 105
Cn1c(=O)n(-c2ccc(C(C)(C)C#N)cc2)c2c3cc(-c4cnc5ccccc5c4)ccc3ncc21 + C#Cc1cccc(Nc2ncnc3cc(OCCOC)c(OCCOC)cc23)c1 [erlotinib] (first compound 0.004 µM, partner dose 0.8 µM) | 102 | 185 | 107 | 170 | 72.6 | 121 | 81.2 | 145 | 120 | 80 | 172 | 43.8 | 113 | 135 | 97.3 | 64.3 | 227 | 195 | 96.4
O=C(O)[C@@H]1[O][Sb](=[O])([O][Sb]2(=[O])[O][C@H]([C@H](O)CO)[C@H](O)[C@H](C(=O)O)[O]2)[O][C@H]([C@H](O)CO)[C@@H]1O (some centres undefined) [stibogluconate] + CC(=O)c1c(C)c2cnc(Nc3ccc(N4CCNCC4)cn3)nc2n(C2CCCC2)c1=O [palbociclib] (first compound 2 µM, partner dose 0.04 µM) | 279 | 56.1 | 91.4 | 116 | 107 | 50 | 118 | 133 | 121 | 107 | 79.5 | 74.6 | 69.8 | 132 | 186 | 137 | 266 | 171 | 99.1
CO[C@H]1C[C@@H]2CC[C@@H](C)[C@@](O)(O2)C(=O)C(=O)N2CCCC[C@H]2C(=O)O[C@H]([C@H](C)C[C@@H]2CC[C@@H](OCCO)[C@H](OC)C2)CC(=O)[C@H](C)/C=C(\C)[C@@H](O)[C@@H](OC)C(=O)[C@H](C)C[C@H](C)/C=C/C=C/C=C/1C [everolimus] + CNC(=O)c1cc(Oc2ccc(NC(=O)Nc3ccc(Cl)c(C(F)(F)F)c3)cc2)ccn1 [sorafenib] (first compound 0.02 µM, partner dose 0.4 µM) | 262 | 57.4 | 158 | 541 | 93.7 | 90.7 | 101 | 104 | 118 | 166 | 47.2 | 23.5 | 124 | 120 | 70 | 218 | 173 | 157 | 53
Cc1cc(Nc2cc(N3CCN(C)CC3)nc(/C=C/c3ccccc3)n2)n[nH]1 + NC1(c2ccc(-c3nc4ccn5c(=O)[nH]nc5c4cc3-c3ccccc3)cc2)CCC1 [MK2206] (first compound 0.04 µM, partner dose 0.4 µM) | 80.1 | 122 | 38.5 | 142 | 137 | 239 | 95 | 111 | 121 | 139 | 165 | 142 | 146 | 121 | 140 | 71 | 133 | 107 | 95.3
CS(=O)(=O)CCNCc1ccc(-c2ccc3ncnc(Nc4ccc(OCc5cccc(F)c5)c(Cl)c4)c3c2)o1 [lapatinib] + CCCS(=O)(=O)Nc1ccc(F)c(C(=O)c2c[nH]c3ncc(Cl)cc23)c1F [PLX4720] (first compound 0.8 µM, partner dose 0.08 µM) | 87.6 | 51.3 | 92.7 | 160 | 141 | 228 | 127 | 49.8 | 104 | 53.4 | 148 | 116 | 65.6 | 154 | 46.5 | 180 | 82.1 | 115 | 61.4
O=C(O)[C@@H]1[O][Sb](=[O])([O][Sb]2(=[O])[O][C@H]([C@H](O)CO)[C@H](O)[C@H](C(=O)O)[O]2)[O][C@H]([C@H](O)CO)[C@@H]1O (some centres undefined) [stibogluconate] + Nc1nc(F)nc2c1ncn2[C@@H]1O[C@H](CO)[C@@H](O)[C@@H]1O [fludarabine] (first compound 2 µM, partner dose 0.2 µM) | 20200 | 133 | 59.8 | 3000 | 95.2 | 108 | 95.4 | 124 | 92.9 | 60 | 129 | 75.3 | 147 | 75.2 | 116 | 71.4 | 127 | 108 | 72.2
CS(=O)(=O)CCNCc1ccc(-c2ccc3ncnc(Nc4ccc(OCc5cccc(F)c5)c(Cl)c4)c3c2)o1 [lapatinib] + Nc1nc(F)nc2c1ncn2[C@@H]1O[C@H](CO)[C@@H](O)[C@@H]1O [fludarabine] (first compound 0.8 µM, partner dose 0.2 µM) | 9770 | 95.3 | 65.7 | 6920 | 69.2 | 112 | 109 | 34.7 | 120 | 25.7 | 67.7 | 128 | 112 | 130 | 133 | 32.6 | 103 | 48.7 | 39.3
C[C@@H](Oc1cc(-c2cnn(C3CCNCC3)c2)cnc1N)c1c(Cl)ccc(F)c1Cl [Crizotinib] + CC(=O)c1c(C)c2cnc(Nc3ccc(N4CCNCC4)cn3)nc2n(C2CCCC2)c1=O [palbociclib] (first compound 0.2 µM, partner dose 0.04 µM) | 194 | 89.1 | 255 | 253 | 88.2 | 33.9 | 261 | 51.6 | 102 | 43.2 | 69.1 | 82.8 | 72.4 | 41.4 | 91.2 | 126 | 52.4 | 105 | 122
CC(C)C[C@H](NC(=O)[C@H](Cc1ccccc1)NC(=O)c1cnccn1)B(O)O [Bortezomib] + Cn1c(Nc2ccc(C(F)(F)F)cc2)nc2cc(Oc3ccnc(-c4ncc(C(F)(F)F)[nH]4)c3)ccc21 [CHIR265] (first compound 0.001 µM, partner dose 0.08 µM) | 225 | 508 | 230 | 437 | 267 | 1080 | 505 | 1330 | 2480 | 641 | 93.9 | 116 | 180 | 8210 | 107 | 82.7 | 332 | 101 | 44.4
